Measurements from article PMC10310825.
These are yes or no findings as the source states them, for the method shown. In cells and extracts the contact can be indirect. Some binding calls cover weakened binding; strength is not graded here.

Sequences of proteins named here, by UniProt entry; tags and fusion partners are left off.
UniProt P04198: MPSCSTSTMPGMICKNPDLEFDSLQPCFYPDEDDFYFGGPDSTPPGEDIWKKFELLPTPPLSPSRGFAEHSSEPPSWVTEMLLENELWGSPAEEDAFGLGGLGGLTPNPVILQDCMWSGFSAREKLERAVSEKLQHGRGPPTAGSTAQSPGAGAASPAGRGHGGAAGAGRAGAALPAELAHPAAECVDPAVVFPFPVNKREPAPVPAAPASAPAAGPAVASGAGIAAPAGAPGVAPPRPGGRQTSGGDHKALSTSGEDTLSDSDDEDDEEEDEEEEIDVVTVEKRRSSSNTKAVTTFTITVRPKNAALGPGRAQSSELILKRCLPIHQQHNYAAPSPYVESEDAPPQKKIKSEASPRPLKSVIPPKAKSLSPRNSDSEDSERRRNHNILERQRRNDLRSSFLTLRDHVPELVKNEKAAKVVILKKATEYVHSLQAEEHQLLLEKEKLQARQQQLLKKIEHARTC
UniProt P25103: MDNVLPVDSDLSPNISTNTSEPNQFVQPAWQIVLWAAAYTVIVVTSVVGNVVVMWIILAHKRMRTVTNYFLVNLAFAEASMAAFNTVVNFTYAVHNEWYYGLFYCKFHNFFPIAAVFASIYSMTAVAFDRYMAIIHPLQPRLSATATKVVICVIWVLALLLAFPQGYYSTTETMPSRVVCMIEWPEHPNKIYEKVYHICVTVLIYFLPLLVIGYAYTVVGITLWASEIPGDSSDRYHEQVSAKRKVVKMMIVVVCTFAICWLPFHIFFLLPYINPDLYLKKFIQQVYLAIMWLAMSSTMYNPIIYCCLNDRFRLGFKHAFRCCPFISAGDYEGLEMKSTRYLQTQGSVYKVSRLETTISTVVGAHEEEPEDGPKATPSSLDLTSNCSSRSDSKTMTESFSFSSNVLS

T1: Aurora A (AURKA) (human (endogenous in LNCaP-NE, 22Rv1-NE and other human PCa cell lines)) (UniProt O14965)
T1 sequence: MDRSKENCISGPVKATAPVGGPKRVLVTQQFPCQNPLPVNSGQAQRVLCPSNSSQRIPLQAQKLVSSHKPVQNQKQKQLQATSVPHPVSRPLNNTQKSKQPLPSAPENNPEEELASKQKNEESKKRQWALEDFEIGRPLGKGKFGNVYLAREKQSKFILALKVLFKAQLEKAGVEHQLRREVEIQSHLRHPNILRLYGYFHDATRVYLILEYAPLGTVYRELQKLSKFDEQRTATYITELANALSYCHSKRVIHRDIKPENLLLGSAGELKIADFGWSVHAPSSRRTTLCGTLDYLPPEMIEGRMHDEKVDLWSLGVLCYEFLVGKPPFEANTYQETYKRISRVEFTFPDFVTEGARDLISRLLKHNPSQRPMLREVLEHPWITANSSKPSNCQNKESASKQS


What was measured:
Assay in all cases: co-IP; endogenous proteins in RIPA lysates (about 100 μg) of LNCaP-NE, 22Rv1-NE, 22Rv1-NK1R, LNCaP-NK1R, DU145 and PC-3 cells; IP with anti-N-MYC, anti-Aurora A or anti-PKCα (1:100) overnight at 4 °C, protein A + G agarose, IgG as control, immunoblot; also after NK1R knock-down or MLN8237 treatment (AURKA/N-Myc interaction reduced)
[1] = molecular target: T1, Aurora A (AURKA) (human (endogenous in LNCaP-NE, 22Rv1-NE and other human PCa cell lines))
[2] = molecular target: N-Myc (human (endogenous in LNCaP-NE, 22Rv1-NE and other human PCa cell lines)) (UniProt P04198)
[3] = molecular target: PKCα (human (endogenous in LNCaP-NE, 22Rv1-NE and other human PCa cell lines)) (UniProt P17252)

binding [1]	binding [2]	binding [3]	Molecule
binds	–	–	PKCα (from UniProt P17252 1-672) (enzyme)
no binding	no binding	–	neurokinin-1 receptor (NK1R) (from UniProt P25103 1-407)
–	–	binds	Aurora A (AURKA) (enzyme, UniProt O14965 1-403) MDRSKENCISGPVKATAPVGGPKRVLVTQQFPCQNPLPVNSGQAQRVLCPSNSSQRIPLQAQKLVSSHKPVQNQKQKQLQATSVPHPVSRPLNNTQKSKQPLPSAPENNPEEELASKQKNEESKKRQWALEDFEIGRPLGKGKFGNVYLAREKQSKFILALKVLFKAQLEKAGVEHQLRREVEIQSHLRHPNILRLYGYFHDATRVYLILEYAPLGTVYRELQKLSKFDEQRTATYITELANALSYCHSKRVIHRDIKPENLLLGSAGELKIADFGWSVHAPSSRRTTLCGTLDYLPPEMIEGRMHDEKVDLWSLGVLCYEFLVGKPPFEANTYQETYKRISRVEFTFPDFVTEGARDLISRLLKHNPSQRPMLREVLEHPWITANSSKPSNCQNKESASKQS
